# Primary screen of a compound library

By UniProt entry, the sequences of proteins in these tests, tags left out. Residues count along the entry.
UniProt Q4DA54, 1-478: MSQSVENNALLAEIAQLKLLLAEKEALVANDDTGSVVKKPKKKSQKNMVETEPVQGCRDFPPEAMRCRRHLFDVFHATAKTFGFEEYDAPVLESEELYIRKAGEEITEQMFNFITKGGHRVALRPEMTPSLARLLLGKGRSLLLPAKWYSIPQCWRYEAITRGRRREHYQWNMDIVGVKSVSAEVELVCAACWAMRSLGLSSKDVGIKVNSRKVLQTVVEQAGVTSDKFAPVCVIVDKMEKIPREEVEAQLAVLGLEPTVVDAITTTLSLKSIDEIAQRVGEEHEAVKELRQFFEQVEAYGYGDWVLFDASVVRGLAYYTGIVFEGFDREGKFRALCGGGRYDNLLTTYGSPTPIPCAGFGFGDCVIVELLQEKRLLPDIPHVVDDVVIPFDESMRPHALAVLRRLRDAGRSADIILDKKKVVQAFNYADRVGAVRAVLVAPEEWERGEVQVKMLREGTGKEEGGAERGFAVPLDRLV
UniProt A4I591, 1-473: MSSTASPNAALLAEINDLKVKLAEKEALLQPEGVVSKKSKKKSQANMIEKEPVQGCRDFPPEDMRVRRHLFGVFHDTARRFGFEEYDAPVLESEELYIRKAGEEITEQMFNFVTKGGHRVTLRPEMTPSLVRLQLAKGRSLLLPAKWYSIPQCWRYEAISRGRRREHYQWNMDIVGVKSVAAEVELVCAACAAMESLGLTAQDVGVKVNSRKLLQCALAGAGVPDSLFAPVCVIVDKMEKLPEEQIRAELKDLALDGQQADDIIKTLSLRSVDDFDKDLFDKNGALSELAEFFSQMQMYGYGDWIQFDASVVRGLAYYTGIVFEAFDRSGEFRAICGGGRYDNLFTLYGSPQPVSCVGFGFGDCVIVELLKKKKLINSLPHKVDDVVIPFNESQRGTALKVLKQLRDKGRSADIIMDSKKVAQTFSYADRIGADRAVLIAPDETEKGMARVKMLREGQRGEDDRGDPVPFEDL

Measurements from “University of Dundee, Small-Polar-MMV Screening Library” (2021), ChEMBL document CHEMBL3988442.

Toxoplasma: 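Assay of Toxoplasma gondii numbers, read through their beta-galactosidase reporter with a colour substrate. Concentration: 10 µM. Higher reads as fewer parasites (inferred from which compounds were picked for retests). About 67,000 compounds were tested under these conditions; 0.38% (about 260) showed 50% or more at least once.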
TcHisRS: 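Enzyme assay of histidyl-tRNA synthetase; the read-out is not stated. Target: Histidine-tRNA ligase, Trypanosoma cruzi CL Brener (UniProt Q4DA54). Tested at 30 µM. The record gives no direction; compounds that gave an IC50 in retests scored well above the rest, so higher reads as stronger inhibition. Size under these conditions: about 69,000 compounds, about 31 of them at 50% or above in at least one test.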
LiHisRS: 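Histidine-tRNA ligase, Leishmania infantum (UniProt A4I591). Enzyme assay of histidyl-tRNA synthetase; the read-out is not stated. Compounds at 30 µM. Higher reads as stronger inhibition (inferred: compounds with an IC50 in retests scored well above the rest). The assay is labelled LdHisRS but filed under L. infantum. About 69,000 compounds were tested under these conditions; 0.6% (about 410) showed 50% or more at least once.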
T. brucei: 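Whole-parasite assay of Trypanosoma brucei over 72 hours; the read-out is not stated. Tested at 30 µM. Direction is inferred from retests: higher values go with stronger inhibition. Values scatter widely below zero; nearly all retest evidence comes from the higher of the two concentrations used. About 64,000 compounds were tested under these conditions; 1.5% (about 940) showed 50% or more at least once.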

The filed quantity is “Percent Effect” (%). The controls that fix the scale are not given in the record; negative values are as filed. This is an unselected part of the compounds tested.

For CCOc1ncccc1CNC(=O)Nc1ccccc1 the result was Toxoplasma: -12.88%; TcHisRS: 2.286%; LiHisRS: 13.46%. Result for CN(C)C[C@H]1OC[C@@H]2CCN(S(=O)(=O)c3ccccc3)C[C@@H]21 was TcHisRS: 0.5464%; LiHisRS: -3.922%. For Cc1occc1C(=O)N1CCC[C@]2(C[C@@H](OCc3ccncc3)CO2)C1.O=C(O)C(F)(F)F the result was Toxoplasma: 1.709%; T. brucei: -4.834%. Cc1cccc(-c2nccnc2C2CCCN(C)C2)c1 (stereo not drawn) gave Toxoplasma: 0.7398%; TcHisRS: 3.955%; LiHisRS: 11.19%; T. brucei: -11.06%. For O=C(O)C(F)(F)F.O=C(O)C(F)(F)F.O=C(O)C(F)(F)F.c1cnc(NCc2noc3c2CN(CCN2CCCC2)CC3)nc1 the result was Toxoplasma: 4.274%; T. brucei: 1.511%.

CCN(CC)C1CCN(c2nccc(C3CCCC3)n2)C1 (stereo not drawn) read Toxoplasma: -11.36%; TcHisRS: 5.806%; LiHisRS: 17.17%; T. brucei: 0.6803%. For COC(=O)C(C)(C)NC(=O)C1CC(=O)N(C2CC2)C1 (stereo not drawn) the result was Toxoplasma: 3.364%; TcHisRS: 1.005%; LiHisRS: 1.064%; T. brucei: -65.36%. Result for COc1ccc2c(ccn2CCC(=O)N[C@H](C(=O)O)C(C)C)c1 was Toxoplasma: 1.348%; TcHisRS: -1.98%; LiHisRS: -3.261%; T. brucei: -19.71%. Result for Cc1sc(Br)cc1S(=O)(=O)NCCCN.Cl was Toxoplasma: 17.22%; T. brucei: 9.773%. Result for c1ccc(CN2CCc3ncnc(-c4ccncc4)c3CC2)nc1 was TcHisRS: 4.926%; LiHisRS: 29.41%.

With COc1c(C2CCCN2CCOc2ccccc2C#N)c(C)nn1C (stereo not drawn) the screen gave Toxoplasma: -20.14%; TcHisRS: 2.041%; LiHisRS: 3.306%; T. brucei: -11.35%. With Cc1nnc2n1CCN(C(=O)c1cnc3c(cnn3C(C)C)c1)C2 the screen gave Toxoplasma: -5.712%; TcHisRS: 1.538%; LiHisRS: 1.587%; T. brucei: -11.88%. For COCCN1CCc2cc(C(=O)NC(C)C)c(NCC3CC3)nc2CC1 the result was TcHisRS: 0%; LiHisRS: 11.11%. For Cc1ccsc1CN(C)Cc1ncccc1C(=O)O the result was Toxoplasma: 1.511%; TcHisRS: 2.809%; LiHisRS: 17.95%; T. brucei: 12.85%. COCc1noc(CCNc2nc(CC3CC3)nc3c2CCNCC3)n1 read Toxoplasma: -1.535%; TcHisRS: 1.19%; LiHisRS: 13.33%; T. brucei: -9.112%.

Result for Cc1ccc(O)c(CNc2cccc(CN3CCSCC3)c2)n1 was Toxoplasma: -2.143%; TcHisRS: 3.867%; LiHisRS: 9.639%; T. brucei: 0.7881%. O=C(NC1CCCC1)c1cc(Cn2cnc3ccccc32)on1 read Toxoplasma: -0.2352%; TcHisRS: 3.704%; LiHisRS: 9.804%; T. brucei: -24.66%. Result for CN1C(=O)C(c2ccccc2)CC12CCN(CCOCCO)CC2 (stereo not drawn) was Toxoplasma: -2.863%; TcHisRS: 2.075%; LiHisRS: 4.854%; T. brucei: -239.6%. CN(CC(=O)Nc1cc(CC2CCCCC2)n[nH]1)S(C)(=O)=O read Toxoplasma: 0.4284%; TcHisRS: 1.657%; LiHisRS: 16.67%; T. brucei: 17.14%. Cc1nccc(NCc2cncc3c2CCN(S(C)(=O)=O)C3)n1.Cl read Toxoplasma: -8.603%; T. brucei: -82.27%.

For CO[C@H]1CCN(C(=O)Cc2ccc(F)cc2)[C@H]1Cc1ccncc1 the result was Toxoplasma: -9.737%; TcHisRS: 6.145%; LiHisRS: 5.769%; T. brucei: -7.383%. For CNC(=O)C1CN(C(=O)COc2ccccc2)Cc2cn(C)nc21 (stereo not drawn) the result was Toxoplasma: -13.59%; TcHisRS: 2.198%; LiHisRS: 13.04%; T. brucei: 31.71%. Cn1cc(CCC(=O)NS(=O)(=O)N2CCCc3ccccc32)cn1 read Toxoplasma: 2.834%; TcHisRS: 5.172%; LiHisRS: 18.42%; T. brucei: 22.69%. CC(C(=O)N1CCCN(Cc2ccc(C#N)cc2)CC1)n1cncn1 (stereo not drawn) read Toxoplasma: -17.02%; TcHisRS: 10.65%; LiHisRS: 23.21%; T. brucei: 6.155%. For CN(C)c1ncccc1CNC(=O)N1CCCC1CN1CCCCC1 (stereo not drawn) the result was Toxoplasma: 5.717%; TcHisRS: -3.053%; LiHisRS: 8.219%; T. brucei: 10.88%.

Cc1cc(C)cc(OCC(=O)N2CCC2)c1 read Toxoplasma: -8.745%; TcHisRS: 4.878%; LiHisRS: 13.25%; T. brucei: -18.52%. CN(C)C(=O)c1cn[nH]c1C1(C)CCN(c2ncccn2)CC1 read Toxoplasma: 6.687%; TcHisRS: -5.303%; LiHisRS: 0%; T. brucei: -14.06%. Result for CC(C)n1nnnc1-c1ccc(NC(=O)N(C)CCN(C)C)cc1F was Toxoplasma: -7.157%; TcHisRS: 3.627%; LiHisRS: 1.124%; T. brucei: -6.613%. CC(C)C(=O)NCCCNC(=O)Nc1cc(-c2ccccc2)ns1 gave Toxoplasma: -30.04%; TcHisRS: 9.938%; LiHisRS: 20%; T. brucei: -16.73%. Result for Cc1ncc(C)c(N2Cc3cnn(Cc4ccc(F)cc4)c3C2)n1 was Toxoplasma: 0.717%; TcHisRS: 6.704%; LiHisRS: 28.12%; T. brucei: 14.13%.

Cc1ccsc1C(=O)N1CCN(Cc2cscn2)CC1 read Toxoplasma: 13.12%; TcHisRS: 9.621%; LiHisRS: 20.35%.